# Laboratory results: patent publication US7700375B2, “Fluorescent labeling of specific protein targets in vitro and in vivo” (Valorisation-Recherche, LP, priority 2004, dated 2010)
# At least one structure is not confirmed: it was looked up by name or label, or the drawing left a doubt.
# Assays:
# [1] = Fluorescence spectral properties of fluorogens and their ethanethiol adducts; format: physicochemical
# Method: For the application of this fluorogenic reaction to the detection of thiols and dithiols, two important criteria are the fluorescence intensity of the thiol addition product and the ratio of its fluorescence compared to its parent fluorogen. We studied the effect of electron withdrawing and donating substituants on these criteria by preparing the derivatives of fluorogen 4 shown in Scheme 1. Fluorogen 5, bearing an electron withdrawing ester group, was prepared according to a protocol similar to that used for fluorogen 4, but using an ester-substituted maleic anhydride derived by oxidation of dimethyl L-tartrate according to a published procedure.^31 Fluorogen 6 bears an electron donating methyl group and was obtained in similar yield by adaptation of the standard literature protocol,^25 using citraconic anhydride. The reaction of 5 and 6 with ethanethiol in DMSO led to the formation of thiol adducts 8 and 9, whose fluorescence was characterized as shown in Table 1. Even from this small series, certain tendencies are apparent. Increasing the electron donating capacity of the substituent appears to have a significant effect on the absorbance maximum corresponding to the wavelength of excitation, increasing by 37 nm from 8 to 9. Although the emission wavelength increases very slightly over the same series, the net effect on the Stokes shift is a significant decrease with increasing electron donating capacity of the substituent.
# Comparison of the fluorescent properties^34 of the four different parent fluorogens (and their corresponding thiol adducts) studied herein (see Table 2) substantiates our retention of compounds 13 and 20 as candidates for further tests with proteins.
# The following material were obtained from Aldrich and were used without further purification: 2-hydroxy-5-nitrobenzaldehyde, N-acetylglycine, maleic anhydride, p-nitrophenylacetic acid, L-aspartic acid dimethyl ester hydrochloride, citraconic anhydride, dimethyl L-tartrate, dimethyl malonate. All reactions were carried out under an atmosphere of dry nitrogen employing conventional bench-top techniques except for reactions with thiols. ^13C-NMR and ^1H-NMR spectra were recorded on AMXR400 or AMX300 spectrometers and were referenced to the residual proton or ^13C signal of the solvent. Mass spectra were determined by FAB+ ionization on an AutoSpecQ spectrometer at the Regional Mass Spectrometry Centre at the Université de Montréal. Infrared spectra were recorded on a Perkin-Elmer (FTIR) spectrometer. Melting points (uncorrected) were determined on a Unimelt Tomas-Hoover or on a Gallenkamp meting point apparatus. Fluorescence spectra were recorded using a Varian Cary Eclipse fluorimeter and gel electrophoresis was carried out on a SpectraPhoresis 100 apparatus.
# [2] = Thiol addition reaction of fluorogens with ethanethiol (fluorescence increase)
# Excerpt: The fluorescence spectra obtained upon excitation at 350 nm before and after the reaction of ethanethiol with compound 4 are shown in FIG. 1.
# Based on this observation, we reasoned that compounds 4 and 13 should also react efficiently with one equivalent of a dithiol bearing two sulfhydryl groups separated by an appropriate distance. […] That is, after fluorogen 4 undergoes an initial addition reaction with BMMB, the second addition reaction with the pendant sulfhydryl group of BMMB is intramolecular and presumably much faster (Scheme 5).
# [formula] […] In the case of dithiol addition, this second addition reaction with a sulfhydryl group would be intramolecular, and presumably even faster.
# [3] = Dithiol addition reaction with BMMB (fluorescence increase); conditions: 1 mM in DMSO
# [4] = Product study of reaction with 3-mercaptopropionic acid by capillary electrophoresis; conditions: up to 2 equivalents of 3-mercaptopropionic acid; CE
# Excerpt: Product studies carried out for the reaction of 4 with simple thiols support the hypothesis that the second addition reaction is faster than the first. Initial experiments involved the addition of ethanethiol to 4 and attempts to separate and characterize the dithiolated and monothiolated adducts. However, no significant peak corresponding to the putative monothiolated adduct could be isolated by flash chromatography, so an experiment was designed to facilitate the separation of the monothiolated and dithiolated adducts by capillary electrophoresis (CE, see Experimental Section). By using 3-mercaptopropionic acid as a simple thiol, we ensured that at basic pH, any monothiolated adduct would singly negatively charged, due to ionization of the carboxylate group, whereas the dithiolated product would be doubly negatively charged.
# After reaction of 1 mM 1 with 0.25-3 mM 3-mercaptopropionic acid in DMSO-H2O 1.9 overnight, the fluorescence of the reaction mixture was measured. To this mixture was then added 3 equivalents of ethanethiol, converting all unreacted and monothiolated adducts to dithiolated adducts. […] Their relative concentrations were calculated by the areas under their peaks, recorded UV detection at 370 nm. […]
smiles,measurement,setting,value
"O=C1C=CC(=O)N1c1ccc2oc(=O)c(N3C(=O)C=CC3=O)cc2c1 [Compound 4, 3,6-Dimaleimidylchromen-2-one]",Stokes shift,[1]; 10:90 DMSO: water,90 nm
same,λem (emission band),[1]; 10:90 DMSO: water,370-600 nm
same,"λem, wavelength corresponding to center of Full Width at Half Maximum of emission band",[1]; 10:90 DMSO: water,450 nm
same,λexc,[1]; 10:90 DMSO: water,360 nm
same,φ (quantum yield),"[1]; 10:90 DMSO: water, rapid approximation method of reference 34",4.55 × 10^−5
same,IF Ratio,"[1]; 10:90 DMSO: water, ratio of areas under emission bands of fluorogen and thiol adduct",3.0
same,Stokes shift,[1]; in DMSO,90 nm
same,λem (emission band),[1]; in DMSO,370-600 nm
same,"λem, wavelength corresponding to center of Full Width at Half Maximum of emission band",[1]; in DMSO,450 nm
same,λexc,[1]; in DMSO,360 nm
same,IF Ratio,"[1]; in DMSO, ratio of areas under fluorescence emission bands of fluorogen and its thiol adduct",3.0
same,change in fluorescence on addition of ethanethiol,"[2]; 3 mM ethanethiol, 1 mM fluorogen, 9:1 H2O:DMSO, over 3 hours",marked increase in fluorescence
same,dependence of rate of thiol addition reaction on concentration of added ethanethiol,[2]; FIG. 4,Linear dependence
same,equivalents of thiol at which fluorescence plateau was reached,[2]; ethanethiol,~2.2 equivalents
same,equivalents of dithiol at which fluorescence plateau was reached,[3],~1.0 equivalent
same,formation of monothiolated adduct,[4],a trace quantity of monothiolated adduct was formed
